The other results are listed elsewhere or left out.
target: T1, OsSMF1 (Oryza sativa, UniProt Q6ZLB0 1-436); experiment: protein-binding microarray (RPBM); PBS, 2% BSA, 51.3 ng/ul salmon testes DNA, 50 uM zinc acetate, 200 nM TF, 25 C, 1 h; high values mean tight binding; details: protein: recombinant; tags: N-terminal polyhistidine and DsRed monomer fusion (pET32a); chain copies: 2; label: CyDye5-dUTP incorporated in the synthesized complementary strand; 3' TTTTT single-stranded linker to array surface; dsDNA, one strand shown
T1 sequence: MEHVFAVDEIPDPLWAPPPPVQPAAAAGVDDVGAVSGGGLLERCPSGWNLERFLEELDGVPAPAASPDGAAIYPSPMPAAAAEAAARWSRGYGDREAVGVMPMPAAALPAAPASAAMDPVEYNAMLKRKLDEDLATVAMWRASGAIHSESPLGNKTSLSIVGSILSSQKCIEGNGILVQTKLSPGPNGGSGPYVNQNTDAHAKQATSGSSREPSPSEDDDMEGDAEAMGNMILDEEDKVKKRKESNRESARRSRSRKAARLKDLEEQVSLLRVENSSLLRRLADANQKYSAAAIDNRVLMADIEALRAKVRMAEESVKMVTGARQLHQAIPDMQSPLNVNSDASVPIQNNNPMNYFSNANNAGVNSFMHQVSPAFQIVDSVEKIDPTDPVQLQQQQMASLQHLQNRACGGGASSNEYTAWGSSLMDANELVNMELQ
Outline: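 For the binding signal, per-feature fluorescence intensity was read in arbitrary units on an Axon 4000B scanner. Before scanning, a 2% BSA-blocked custom Agilent array made double-stranded with Cy5-dUTP was washed after 1 h at 25 °C with 200 nM protein and 50 µM zinc acetate. The proteins were Ni–NTA-purified transcription factors with N-terminal polyhistidine and DsRed fusions, expressed in E. coli BL21-CodonPlus.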

Row | Sequence | binding signal
1 | AATCAGAGCCGAAAGCTCCAAGCTTTCCCGTTTTCAAGCCCGGAGTCACCTAGTGCAG | 19000 fluorescence intensity (a.u.)
2 | AACACACGACTATTACGAACATCCCTCGTCAGCACCCATGCGGAGTCACCTAGTGCAG | 7300 fluorescence intensity (a.u.)
3 | GTATTCTCAGGTTCGATTTCCACAAGGAACATGTGTGTCACGGAGTCACCTAGTGCAG | 4270 fluorescence intensity (a.u.)
4 | TATTTCCCTTACAAAATGATGAGTTGGTGTGTGCGCGCAGCGGAGTCACCTAGTGCAG | 3720 fluorescence intensity (a.u.)
5 | AGTTGACGTGGCATACTGACACGTGGGCCCCATGTGGGTTCGGAGTCACCTAGTGCAG | 24900 fluorescence intensity (a.u.)
6 | CTGGAGGGAGTATTTGATAACCCTGCTATATGTAGGGCTCCGGAGTCACCTAGTGCAG | 32800 fluorescence intensity (a.u.)
7 | ACGCCGCGAGATATCCCCGTCACGAATATTCCTCTTCCTCCGGAGTCACCTAGTGCAG | 5260 fluorescence intensity (a.u.)
8 | AATTCATACTGAATTCATTTACTACGTGTATGATTCATGACGGAGTCACCTAGTGCAG | 4620 fluorescence intensity (a.u.)
9 | TCAGCTAGCTCGATCACACGCCAACACACCAAGCTAGTCGCGGAGTCACCTAGTGCAG | 3780 fluorescence intensity (a.u.)
10 | TAAATTAAATTGCTACGTAAGTGCCACGTCATATTAAGATCGGAGTCACCTAGTGCAG | 12500 fluorescence intensity (a.u.)
11 | TAATTTCATCTTGATGGACACGTGGTTTGTCGATGTACACCGGAGTCACCTAGTGCAG | 10100 fluorescence intensity (a.u.)
12 | CCCTTCACTCCCCGTCGCATCGCATCTTGGCTGACTCGTCCGGAGTCACCTAGTGCAG | 4960 fluorescence intensity (a.u.)
13 | CGGATTCACTGCAATAGCCTCCCTGTCATCGCCAACGCCCCGGAGTCACCTAGTGCAG | 3300 fluorescence intensity (a.u.)
14 | TCATAACCACCCACAGAGGTCAGTAAGGTGGCTCAGAGATCGGAGTCACCTAGTGCAG | 3480 fluorescence intensity (a.u.)
15 | CTTGCTGTCCTCTCGTTTCCTGTGTCATTCTCGCGCGCCACGGAGTCACCTAGTGCAG | 3540 fluorescence intensity (a.u.)
16 | AAAGTTTGCCACCACTGACTAGGATTTAGTCGTCCGCACGCGGAGTCACCTAGTGCAG | 4240 fluorescence intensity (a.u.)
17 | TAGTTTCCACTCCCTCTCCTCGGGGAGTCGTTGCTGTTCTCGGAGTCACCTAGTGCAG | 3350 fluorescence intensity (a.u.)
18 | GTGTGATTATCTTCTCCATACCATCTCGTGCTACATGCGCCGGAGTCACCTAGTGCAG | 40000 fluorescence intensity (a.u.)
19 | CACCCACTGCCAGTGGGGCCCACTAGCCCACCTCACCCACCGGAGTCACCTAGTGCAG | 3360 fluorescence intensity (a.u.)
20 | ACCAGCCAAATCGCGTCCAGTCACCACCTCTTGTTCGGTTCGGAGTCACCTAGTGCAG | 4150 fluorescence intensity (a.u.)
21 | ACTCTGCCGGCAGGCGTACGTGTGTCCCGGCATTTGGTCGCGGAGTCACCTAGTGCAG | 4500 fluorescence intensity (a.u.)
22 | GACTTTCGTACGTACGTACTACGTGTTCAGCTAGCCGTTCCGGAGTCACCTAGTGCAG | 3190 fluorescence intensity (a.u.)
23 | CACCACTACCACGATCAGGCCCAAGAGATGATAAAGTGGCCGGAGTCACCTAGTGCAG | 46500 fluorescence intensity (a.u.)
24 | ATTCACAAAAGCTCTCGGCGAGTACGTGGGTCAATGGTGACGGAGTCACCTAGTGCAG | 4210 fluorescence intensity (a.u.)
25 | TGTAGGTGCCATTGATTTCATTTTGCATCAGCAAGAGCATCGGAGTCACCTAGTGCAG | 3600 fluorescence intensity (a.u.)
26 | AGCAGCGACTCCCTGGCGCCGCCGCACTCGCCGGCCGTCACGGAGTCACCTAGTGCAG | 21900 fluorescence intensity (a.u.)
27 | CTAAGCACGATTAGTGCTAAGCACGTCATTAGCGAACGTGCGGAGTCACCTAGTGCAG | 5950 fluorescence intensity (a.u.)

Row | Sequence | binding signal
28 | AAAATGAAGTGGTTACCAAGTTTTCTACGTTAGCAAGAACCGGAGTCACCTAGTGCAG | 26900 fluorescence intensity (a.u.)
29 | TGATTTCAACCTTACGTGTACACCATATTAGCCACAATAACGGAGTCACCTAGTGCAG | 4270 fluorescence intensity (a.u.)
30 | CGACTGAAGACTTGGACACGGTCAGTCTTTCTGCCGTGTTCGGAGTCACCTAGTGCAG | 5080 fluorescence intensity (a.u.)
31 | ATCGAGAGAAAAGAAGCAAGGTAACACAGATTAATCATCCCGGAGTCACCTAGTGCAG | 5630 fluorescence intensity (a.u.)
32 | CCCCTTCGATACAAACGAAGCCGCCGCTCCGCATCAGCAGCGGAGTCACCTAGTGCAG | 4920 fluorescence intensity (a.u.)
33 | AAACCCTCGCAACGTATCATGCCACATAATGCCACATAGACGGAGTCACCTAGTGCAG | 3890 fluorescence intensity (a.u.)
34 | CTACGACGCGGGCCACACGTCCCCGTGACAACTCATGCCACGGAGTCACCTAGTGCAG | 3730 fluorescence intensity (a.u.)
35 | CGCCCCAATTTCCATGTACACGTAGCAGTTTCTCCCAAAACGGAGTCACCTAGTGCAG | 6860 fluorescence intensity (a.u.)
36 | AGATAGAGAAGATATGCAAAACGATGTGAGTCATTAATGTCGGAGTCACCTAGTGCAG | 6330 fluorescence intensity (a.u.)
37 | GAAATTTCTATGAAGGAAGCTTAAATCAGTGGTAACCGATCGGAGTCACCTAGTGCAG | 3140 fluorescence intensity (a.u.)
38 | AAGCAGTCAAGCTAAACCCGTCATTATTTCAGTTTGATGTCGGAGTCACCTAGTGCAG | 4150 fluorescence intensity (a.u.)
39 | TTCGGGGATGTGAATGGGAATGGATTGGATCTTGGGATTACGGAGTCACCTAGTGCAG | 3620 fluorescence intensity (a.u.)
40 | TTAGGGTTTACTCCTGATTTGCACCGGTATTTTCTTAGGGCGGAGTCACCTAGTGCAG | 3860 fluorescence intensity (a.u.)
41 | CCTCCCTCCCATCCGATCCCGTCCGTCCATCTCCGATCCGCGGAGTCACCTAGTGCAG | 4300 fluorescence intensity (a.u.)
42 | AACTCCTCGCCACCACGCCGCTTTATTCTCTAAGAACCCCCGGAGTCACCTAGTGCAG | 40700 fluorescence intensity (a.u.)
43 | AGGCTTGTAGACGTGTTAAGGTTCCTGCCTGTACAAATGCCGGAGTCACCTAGTGCAG | 3590 fluorescence intensity (a.u.)
44 | CGCCCGCTGCATGCCACCTATGTCTGCGTTATTGCTTCTCCGGAGTCACCTAGTGCAG | 5160 fluorescence intensity (a.u.)
45 | GCTAACGCAGCAATGACACGTCAAGAACTGAAAATTAAATCGGAGTCACCTAGTGCAG | 3580 fluorescence intensity (a.u.)
46 | ACACGCAGTCGCGCCTTCCCCAGTCACCAACACGCCGAGGCGGAGTCACCTAGTGCAG | 3800 fluorescence intensity (a.u.)
47 | GTAAGGTGCTCGATTAGCACACGTGCTCACCTTCACGGCGCGGAGTCACCTAGTGCAG | 3150 fluorescence intensity (a.u.)
48 | CACCAGTAATATCGTACAGTACTACTCCAACATGTCACCACGGAGTCACCTAGTGCAG | 4500 fluorescence intensity (a.u.)
49 | CAACATCTGACCACTACACAGCTCCCGTGGACGGTGGACCCGGAGTCACCTAGTGCAG | 3780 fluorescence intensity (a.u.)
50 | AACCCGCTCCGACACGTGCCACCCCTTCCCGCCACCTCGTCGGAGTCACCTAGTGCAG | 12300 fluorescence intensity (a.u.)
51 | GAATTTGTCGTGTCATATCCACTCGAGTCGCGAGTTGGCCCGGAGTCACCTAGTGCAG | 4300 fluorescence intensity (a.u.)
52 | TCGATCGCTCCCGTTCGACGCCGATCGGATGGAGCAGCGTCGGAGTCACCTAGTGCAG | 3270 fluorescence intensity (a.u.)
53 | ACCACCGACCGCGTCGACACCGTAGACCGTGCATCAGCCGCGGAGTCACCTAGTGCAG | 3640 fluorescence intensity (a.u.)
54 | CGACGATGCTGGCAGCCGTGGACGCCGTGGCTGACTCTCGCGGAGTCACCTAGTGCAG | 3320 fluorescence intensity (a.u.)

14 entries from above, as comma-separated lines:
Row,Sequence,binding signal
35,CGCCCCAATTTCCATGTACACGTAGCAGTTTCTCCCAAAACGGAGTCACCTAGTGCAG,6860 fluorescence intensity (a.u.)
36,AGATAGAGAAGATATGCAAAACGATGTGAGTCATTAATGTCGGAGTCACCTAGTGCAG,6330 fluorescence intensity (a.u.)
37,GAAATTTCTATGAAGGAAGCTTAAATCAGTGGTAACCGATCGGAGTCACCTAGTGCAG,3140 fluorescence intensity (a.u.)
38,AAGCAGTCAAGCTAAACCCGTCATTATTTCAGTTTGATGTCGGAGTCACCTAGTGCAG,4150 fluorescence intensity (a.u.)
39,TTCGGGGATGTGAATGGGAATGGATTGGATCTTGGGATTACGGAGTCACCTAGTGCAG,3620 fluorescence intensity (a.u.)
40,TTAGGGTTTACTCCTGATTTGCACCGGTATTTTCTTAGGGCGGAGTCACCTAGTGCAG,3860 fluorescence intensity (a.u.)
41,CCTCCCTCCCATCCGATCCCGTCCGTCCATCTCCGATCCGCGGAGTCACCTAGTGCAG,4300 fluorescence intensity (a.u.)
42,AACTCCTCGCCACCACGCCGCTTTATTCTCTAAGAACCCCCGGAGTCACCTAGTGCAG,40700 fluorescence intensity (a.u.)
43,AGGCTTGTAGACGTGTTAAGGTTCCTGCCTGTACAAATGCCGGAGTCACCTAGTGCAG,3590 fluorescence intensity (a.u.)
44,CGCCCGCTGCATGCCACCTATGTCTGCGTTATTGCTTCTCCGGAGTCACCTAGTGCAG,5160 fluorescence intensity (a.u.)
45,GCTAACGCAGCAATGACACGTCAAGAACTGAAAATTAAATCGGAGTCACCTAGTGCAG,3580 fluorescence intensity (a.u.)
46,ACACGCAGTCGCGCCTTCCCCAGTCACCAACACGCCGAGGCGGAGTCACCTAGTGCAG,3800 fluorescence intensity (a.u.)
47,GTAAGGTGCTCGATTAGCACACGTGCTCACCTTCACGGCGCGGAGTCACCTAGTGCAG,3150 fluorescence intensity (a.u.)
48,CACCAGTAATATCGTACAGTACTACTCCAACATGTCACCACGGAGTCACCTAGTGCAG,4500 fluorescence intensity (a.u.)

— paper PMC7819943, “Rice protein-binding microarrays: a tool to detect cis-acting elements near promoter regions in rice”
